We go through 1 molecule from US10357516B2 (priority 2008, dated 2019).

In the data set the test system is RBC surface. The data set can be described thus: Anti-acridine antibody binding capacity (ABC), immune flow cytometric assay. Format: cell-based, human. In general terms: A flow cytometer gives signals particle by particle.

Take `O=C(CCNc1c2ccccc2nc2ccccc12)OCCN(CCCl)CCCl` [S-303, β-alanine, N-(acridin-9-yl), 2-[bis(2-chloroethyl)amino]ethyl ester]: the antibody binding capacity was 123,714±5123 ABC (RBC treated with 2 mM acidic GSH); “approximately 39,000 per red cell” (RBC treated with 20 mM GSH neutralized with 1 equivalent of NaOH and 0.2 mM S-303, several RBC preparations); 18,407±1195 ABC (RBC treated with 20 mM GSH neutralized with 2 equivalents of NaOH).
